Test results: PMC8967206, “Pyrimidine-5-carbonitrile based potential anticancer agents as apoptosis inducers through PI3K/AKT axis inhibition in leukaemia K562” (Journal of Enzyme Inhibition and Medicinal Chemistry, 2022)

Experiments:
[1] = in vitro; conditions: human
[2] = tested on: leukaemia (K562) cell line; assay: MTT colorimetric cytotoxicity assay, K562; conditions: Homo sapiens, K562, 48 h, read-out: Cytotoxicity in IC50, K562
[3] = tested on: breast cancer (MCF-7) cell line; assay: MTT colorimetric cytotoxicity assay, MCF-7; conditions: Homo sapiens, MCF7, 48 h, read-out: Cytotoxicity in IC50, MCF-7
[4] = tested on: normal fibroblast cell line (WI-38); assay: Cytotoxicity on normal fibroblast cell line; conditions: WI-38 versus K562

CN[C@@H]1C[C@H]2O[C@@](C)([C@@H]1OC)n1c3ccccc3c3c4c(c5c6ccccc6n2c5c31)C(=O)NC4 [Staurosporine, reference compound]
IC50 [1]: 22.8 ± 1.38 µM
IC50 [2]: 11.6 ± 0.55 µM
IC50 [3]: 9.51 ± 0.52 µM
SI (selectivity index) [4]: 1.97
